This is an account of results in publication PMC7819943, “Rice protein-binding microarrays: a tool to detect cis-acting elements near promoter regions in rice”.

The list shows a part of the results.

The target in the experiment is T1, OsSMF1 (Oryza sativa, UniProt Q6ZLB0 1-436).
T1 sequence: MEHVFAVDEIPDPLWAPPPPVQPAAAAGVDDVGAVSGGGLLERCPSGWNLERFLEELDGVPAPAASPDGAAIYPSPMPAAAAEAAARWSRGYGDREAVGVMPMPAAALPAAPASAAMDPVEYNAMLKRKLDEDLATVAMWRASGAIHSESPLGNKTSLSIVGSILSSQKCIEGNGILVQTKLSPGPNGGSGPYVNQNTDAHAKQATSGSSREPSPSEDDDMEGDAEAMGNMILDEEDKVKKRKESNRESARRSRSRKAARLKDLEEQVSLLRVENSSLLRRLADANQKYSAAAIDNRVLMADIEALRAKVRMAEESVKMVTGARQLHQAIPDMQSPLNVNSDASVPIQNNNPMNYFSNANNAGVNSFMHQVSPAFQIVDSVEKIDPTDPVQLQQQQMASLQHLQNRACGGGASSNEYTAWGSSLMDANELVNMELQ
In words: protein-binding microarray (RPBM); PBS, 2% BSA, 51.3 ng/ul salmon testes DNA, 50 uM zinc acetate, 200 nM TF, 25 C, 1 h; high values mean tight binding. To be noted: protein: recombinant; tags: N-terminal polyhistidine and DsRed monomer fusion (pET32a); chain copies: 2; label: CyDye5-dUTP incorporated in the synthesized complementary strand; 3' TTTTT single-stranded linker to array surface; dsDNA, one strand shown. Put shortly: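 Polyhistidine-tagged DsRed fusions of transcription factors, joined at the N-terminus, were expressed in E. coli BL21-CodonPlus and isolated on Ni–NTA. They were incubated at 200 nM for 1 h at 25 °C on a custom Agilent array, double-stranded and BSA-blocked, in PBS with 2% BSA, salmon testes DNA and 50 µM zinc acetate. The binding signal is per-feature fluorescence intensity (arbitrary units) read on an Axon 4000B scanner after washing.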
As for “AAGAAAAGCATACACCAACGGCTGGCTCTATACTCTGCCACGGAGTCACCTAGTGCAG”, the binding signal was 3210 fluorescence intensity (a.u.). “GCCTGCAGTTGCTCGATCTACGCATGTACCCAAGCTCCGCCGGAGTCACCTAGTGCAG”: the binding signal is 3330 fluorescence intensity (a.u.). With “AGAGAATTATGGAGAGGGGAGGGGAGGGGCAGCAAAAGAGCGGAGTCACCTAGTGCAG” the figure was 4210 fluorescence intensity (a.u.); with “GCCCGCGCTTCATCCGGTAACCACCGTCACCAACCGTGCGCGGAGTCACCTAGTGCAG”, 5640 fluorescence intensity (a.u.). With “AGATCAAACCTGCCACGTGAGCACCATGTCAATGCCACATCGGAGTCACCTAGTGCAG” the figure was 18200 fluorescence intensity (a.u.); with “CGTCGTGGTGGTGAGGGGTGACGCGAGTCACGCAACTCGCCGGAGTCACCTAGTGCAG”, 6180 fluorescence intensity (a.u.); with “GGAGATTGTGTCCTTATCTATAACGACAAGTATTATCAATCGGAGTCACCTAGTGCAG”, 32400 fluorescence intensity (a.u.). To “CCCTCCTCTTTCCACTTGTCACCGCCGTTCGCCTTCCCAACGGAGTCACCTAGTGCAG” belongs 3440 fluorescence intensity (a.u.).

On to “TAGAACTGACTCCTATAGCAAGCGACGGAGAAGCTCGACGCGGAGTCACCTAGTGCAG”, for which the binding signal was 3780 fluorescence intensity (a.u.). With “ACATATTCACAGGGGTGTGAGTGTGATTGTGATGTTGCATCGGAGTCACCTAGTGCAG” the figure was 3550 fluorescence intensity (a.u.); with “CGATACTGCGATGCATCGATATCGTTCGTCAGCTCAAGTACGGAGTCACCTAGTGCAG”, 3980 fluorescence intensity (a.u.). With “CCTCCTATATAATCATCAAAAGCTTAGCTTAGCAGTAGGCCGGAGTCACCTAGTGCAG” the figure was 30000 fluorescence intensity (a.u.); with “GGCGGCGGCGGCGGCGCGGCGGCGTTGACGTCGACCGGCGCGGAGTCACCTAGTGCAG”, 3530 fluorescence intensity (a.u.). With “ATATTTTGCTTCCAATGCCACATTACCACCACGTAGGACGCGGAGTCACCTAGTGCAG” the figure was 8970 fluorescence intensity (a.u.); with “GCTGGTCACATCACAAACACGTACACTCACACCGTTGCCTCGGAGTCACCTAGTGCAG”, 4570 fluorescence intensity (a.u.). In the case of “ATTTACAATGTACCATTTCAACACGTGTGAAGCCATAAGACGGAGTCACCTAGTGCAG”, the binding signal is 4890 fluorescence intensity (a.u.). With “CGTCGCACTGGCACGGTGGAGGACTACGTCAACAGTTTCCCGGAGTCACCTAGTGCAG” the figure was 4570 fluorescence intensity (a.u.). To “CAATGCAACTACTAACAACATGACAAGGCCTCCGGAACCGCGGAGTCACCTAGTGCAG” belongs 4000 fluorescence intensity (a.u.); to “GTCTCAAACATAATCACCCATACTCGCAGGTAGTACATTCCGGAGTCACCTAGTGCAG”, 3300 fluorescence intensity (a.u.). To “TTCAGTGGTGTGACGCGCCGGTGCGCCACACGTCCACCCCCGGAGTCACCTAGTGCAG” belongs 4780 fluorescence intensity (a.u.); to “CTGCGCGCCATCGAGCGCTACCGCGTGACGCTGCTGCCCGCGGAGTCACCTAGTGCAG”, 5150 fluorescence intensity (a.u.); to “GGTACAAAGGTGAATTATACTTCCTGGCAAGTGGTGGAATCGGAGTCACCTAGTGCAG”, 3640 fluorescence intensity (a.u.).

Consider “CCCACCGTAATACGTTCGCTATTTTGTCACGGATTCGGCGCGGAGTCACCTAGTGCAG”, for which the binding signal was 3760 fluorescence intensity (a.u.). Consider “CTCTGCTTTGCGTGGGCACTGTTTAACCATTTTGTCATGTCGGAGTCACCTAGTGCAG”, for which the binding signal is 3950 fluorescence intensity (a.u.). To “ATGGTCGTCGCTTTCGAGCCACGCTGGAACGTGCCGTGCGCGGAGTCACCTAGTGCAG” belongs 3600 fluorescence intensity (a.u.); to “CAAGCTGCAACAGCAGCAGCGTGGCAACGCCACGTGTCTCCGGAGTCACCTAGTGCAG”, 18600 fluorescence intensity (a.u.); to “CGATGTGTTGTGTGCTGCTGCAAATTATCATATTGTTCATCGGAGTCACCTAGTGCAG”, 3260 fluorescence intensity (a.u.). For “CCGTTTCTACTCACCCAAGCCGCCACCGCACTTCGCACCCCGGAGTCACCTAGTGCAG”, the binding signal is 3910 fluorescence intensity (a.u.). As for “TATTATCATGCTCCGCACAACACGTCAACGAACCACAAGTCGGAGTCACCTAGTGCAG”, the binding signal was 6700 fluorescence intensity (a.u.).

Turning to “ACTGCTGGATTCAGATGCCACGTGCATGTTCGCATGTGGCCGGAGTCACCTAGTGCAG”, the binding signal is 13100 fluorescence intensity (a.u.). To “CGTCAGAGGTGGATGTCACCACTGACGGCCGGCCACCCGTCGGAGTCACCTAGTGCAG” belongs 3310 fluorescence intensity (a.u.); to “CTACAGGAAAGGACCACCCGATGGTACATGCATTCCCGTGCGGAGTCACCTAGTGCAG”, 3410 fluorescence intensity (a.u.); to “CATCCCGGCATGGATTGGGCGCAGGTGACGCGGATCAACGCGGAGTCACCTAGTGCAG”, 6240 fluorescence intensity (a.u.). Regarding “CGCGTACGGGTATCCAACCAGCGTCCTCTGCATCGATCTCCGGAGTCACCTAGTGCAG”, the binding signal is 3210 fluorescence intensity (a.u.).

On to “ACGTCCATCCGTTTCTTGCATGCCACCTAAATGATTATGACGGAGTCACCTAGTGCAG”, for which the binding signal is 3670 fluorescence intensity (a.u.). For “CGAGCACCTCCGGCCGAGCCCCGCCTCCCCGTCAACAAATCGGAGTCACCTAGTGCAG”, the binding signal is 3510 fluorescence intensity (a.u.). To “AAATAGAAGCTTGTAATGTTGCTGACGTCGATCCTCCTGTCGGAGTCACCTAGTGCAG” belongs 13800 fluorescence intensity (a.u.). For the sequence “GTTTTCTCTTATATATCTGCGCGTGAGTTGTGTGCTGAATCGGAGTCACCTAGTGCAG”, the binding signal was 3410 fluorescence intensity (a.u.). To “AAAACCATCGAAAACAGAGGGAGAATTTGCTGGTGTGGGTCGGAGTCACCTAGTGCAG” belongs 12100 fluorescence intensity (a.u.); to “TACTGTAAATAAGCGTTTAAACAGTAACTACACCTGCGTACGGAGTCACCTAGTGCAG”, 27400 fluorescence intensity (a.u.). With “TACAACAATAACGAATGGAATTATCAGAGAATTGCAACTCCGGAGTCACCTAGTGCAG” the figure was 3920 fluorescence intensity (a.u.). With “CAAAACTGTGGTATGGGCCGGGGTGGGGCGGCGCGGGCCACGGAGTCACCTAGTGCAG” the figure was 6520 fluorescence intensity (a.u.).
